Measurements as given in patent US10155792B2, “Albumin binding polypeptide” (priority 2012, dated 2018).
Part of at least one peptide drawing is inferred or uncertain, most often the ends. Some compounds share one wording; it may come from a single statement. Where no end group is shown, it is not given here.

Protein sequences, listed by entry. Tags and fused reporters are not part of them. Residues count along the entry.
UniProt P02768, 25-609: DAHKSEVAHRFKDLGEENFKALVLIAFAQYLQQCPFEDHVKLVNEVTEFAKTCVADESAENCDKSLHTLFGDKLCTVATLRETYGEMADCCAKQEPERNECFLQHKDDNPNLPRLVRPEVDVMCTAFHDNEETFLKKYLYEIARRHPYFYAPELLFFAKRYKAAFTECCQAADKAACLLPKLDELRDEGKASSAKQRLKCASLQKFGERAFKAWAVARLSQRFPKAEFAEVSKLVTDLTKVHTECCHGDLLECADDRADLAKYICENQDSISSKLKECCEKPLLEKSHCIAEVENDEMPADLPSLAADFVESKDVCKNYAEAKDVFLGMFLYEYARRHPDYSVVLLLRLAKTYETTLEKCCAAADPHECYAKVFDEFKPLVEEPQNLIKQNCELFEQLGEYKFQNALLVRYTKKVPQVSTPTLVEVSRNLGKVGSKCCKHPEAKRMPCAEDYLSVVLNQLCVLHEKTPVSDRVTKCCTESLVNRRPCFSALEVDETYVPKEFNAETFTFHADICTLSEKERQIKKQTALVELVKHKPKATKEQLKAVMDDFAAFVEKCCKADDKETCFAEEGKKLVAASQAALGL

Key:
[1] = target: human serum albumin (HSA) (Homo sapiens, UniProt P02768); assay: Biacore analysis of binding to HSA; conditions: for ka, relative / kd, relative: HSA immobilized, Biacore2000, 1:1 Langmuir model; for albumin binding characteristics, comparison with PEP07843: judged by the kinetic parameters
[2] = Circular dichroism analysis, variable temperature measurement; type: physicochemical; conditions: for Tm (melting temperature): CD at 221 nm, 20° C. to 90° C., 0.5 mg/ml in 1×PBS; for CD spectra overlay: spectra 195-250 nm before and after heat treatment
Procedure: Secondary structure of ABD variants was analyzed by circular dichroism (CD) spectroscopy using a scan from 195-250 nm before and after the variable temperature measurement (see below). Purified albumin binding polypeptide variants were diluted in 1×PBS, to final concentration of 0.5 mg/ml. Circular dichroism (CD) analysis was performed on a Jasco J-810 spectropolarimeter in a cell with an optical path-length of 1 mm. Alpha helical proteins show typical minima at 208 and 222 nm.
Variable temperature measurement was used to determine the melting temperature, Tm. In these measurements, the absorbance was measured at 221 nm from 20° C. to 90° C., with a temperature slope of 5° C./min.
The melting temperatures of the ABD variants were calculated by determining the midpoint of the transtition in the CD vs. temperature plot.
The CD spectra before and after heat treatment were compared in order to detect potential heat denaturation of the proteins. […] FIGS. 2A and 2B show the CD spectra of the new ABD variants and of PEP07843 (SEQ ID NO:27) for comparison.

| Sequence | ka, relative [1] | kd, relative [1] | albumin binding characteristics, comparison with PEP07843 [1] | Tm (melting temperature) [2] | CD spectra overlay [2] |
| --- | --- | --- | --- | --- | --- |
| GSSLAEAKEAANAELDSYGVSDFYKSLIDKAKTVEGVEALKDAILAALP [PEP12381] | 1.83e+06 M⁻¹ s⁻¹ | 3.08e-05 s⁻¹ | lower binding affinities to albumin | 56 °C | completely reversible |
| GSSLAEAKEAANAELDSYGVSDFYKRLIDKAKTVEGVEALKDAILAALP [PEP07843, reference compound] | 4.49e+06 M⁻¹ s⁻¹ | 2.99e-05 s⁻¹ |  | 62 °C | completely reversible |
| GSSLAEAKEAANAELDSYGVSDFYKNLIDKAKTVEGVEALKDAILAALP [PEP12379] | 1.7e+06 M⁻¹ s⁻¹ | 2.36e-05 s⁻¹ | lower binding affinities to albumin | 56 °C | completely reversible |
| GSSLAEAKEAANAELDSYGVSDFYKKLIDKAKTVEGVEALKDAILAALP [PEP12380] | 3.48e+06 M⁻¹ s⁻¹ | 2.62e-05 s⁻¹ |  | 60 °C | completely reversible |
